This continues a long series; more values of the same kind are listed elsewhere.
How the values were obtained:
Format in all cases: cell-based
[1] = target: Histone-lysine N-methyltransferase EZH2 (Mus musculus) (UniProt Q61188); test: Inhibition of EZH2 in mouse B16-F1 migrating cells assessed as fold change in H3K27me3-independent regulated Cyr61-mRNA expression at 3 uM measured by ChIP-seq analysis relative to control cells
[2] = target: Histone-lysine N-methyltransferase EZH2 (Mus musculus) (UniProt Q61188); test: Inhibition of EZH2 in mouse B16-F1 migrating cells assessed as fold change in H3K27me3-buffered regulated Ttc39c-mRNA expression at 3 uM measured by ChIP-seq analysis relative to control cells
[3] = target: Histone-lysine N-methyltransferase EZH2 (Mus musculus) (UniProt Q61188); test: Inhibition of EZH2 in mouse B16-F1 migrating cells assessed as fold change in H3K27me3-dependent regulated Tet1-mRNA expression at 3 uM measured by ChIP-seq analysis relative to control cells
[4] = target: Histone-lysine N-methyltransferase EZH2 (Mus musculus) (UniProt Q61188); test: Inhibition of EZH2 in mouse B16-F1 migrating cells assessed as fold change in H3K27me3-buffered regulated Sdr39u1-mRNA expression at 3 uM measured by ChIP-seq analysis relative to control cells
[5] = target: Histone-lysine N-methyltransferase EZH2 (Mus musculus) (UniProt Q61188); test: Inhibition of EZH2 in mouse B16-F1 migrating cells assessed as fold change in H3K27me3-dependent regulated Trib1-mRNA expression at 3 uM measured by ChIP-seq analysis relative to control cells
[6] = target: Histone-lysine N-methyltransferase EZH2 (Mus musculus) (UniProt Q61188); test: Inhibition of EZH2 in mouse B16-F1 migrating cells assessed as fold change in H3K27me3-independent regulated Plekhg1-mRNA expression at 3 uM measured by ChIP-seq analysis relative to control cells
[7] = target: Histone-lysine N-methyltransferase EZH2 (Mus musculus) (UniProt Q61188); test: Inhibition of EZH2 in mouse B16-F1 migrating cells assessed as fold change in H3K27me3-buffered regulated Erbb2-mRNA expression at 3 uM measured by ChIP-seq analysis relative to control cells
[8] = target: Histone-lysine N-methyltransferase EZH2 (Mus musculus) (UniProt Q61188); test: Inhibition of EZH2 in mouse B16-F1 migrating cells assessed as fold change in H3K27me3-buffered regulated 2310030G06Rik-mRNA expression at 3 uM measured by ChIP-seq analysis relative to control cells
[9] = target: Histone-lysine N-methyltransferase EZH2 (Mus musculus) (UniProt Q61188); test: Inhibition of EZH2 in mouse B16-F1 migrating cells assessed as fold change in H3K27me3-buffered regulated Tubb3-mRNA expression at 3 uM measured by ChIP-seq analysis relative to control cells
[10] = target: Histone-lysine N-methyltransferase EZH2 (Mus musculus) (UniProt Q61188); test: Inhibition of EZH2 in mouse B16-F1 migrating cells assessed as fold change in H3K27me3-independent regulated Tagln2-mRNA expression at 3 uM measured by ChIP-seq analysis relative to control cells
[11] = target: Histone-lysine N-methyltransferase EZH2 (Mus musculus) (UniProt Q61188); test: Inhibition of EZH2 in mouse B16-F1 migrating cells assessed as fold change in H3K27me3-independent regulated Gm15425-mRNA expression at 3 uM measured by ChIP-seq analysis relative to control cells
[12] = target: Histone-lysine N-methyltransferase EZH2 (Mus musculus) (UniProt Q61188); test: Inhibition of EZH2 in mouse B16-F1 migrating cells assessed as fold change in H3K27me3-buffered regulated Rcor2-mRNA expression at 3 uM measured by ChIP-seq analysis relative to control cells
[13] = target: T1, RNA polymerase II (Mus musculus) (UniProt P08775+Q8CFI7+P97760+A0A3Q4L2S8+Q80UW8+P61219+P62488+Q923G2+P60898+O08740+Q63871+P62876); test: Inhibition of RNA polymerase II in mouse B16-F1 migrating cells assessed as fold change in Pura-RNA stability at 0.1 mM measured by ChIP-seq analysis relative to control cells
[14] = target: T1, RNA polymerase II (Mus musculus); test: Inhibition of RNA polymerase II in mouse B16-F1 migrating cells assessed as fold change in Smim19-RNA stability at 0.1 mM measured by ChIP-seq analysis relative to control cells
[15] = target: T1, RNA polymerase II (Mus musculus); test: Inhibition of RNA polymerase II in mouse B16-F1 migrating cells assessed as fold change in Rpe-RNA stability at 0.1 mM measured by ChIP-seq analysis relative to control cells
[16] = target: T1, RNA polymerase II (Mus musculus); test: Inhibition of RNA polymerase II in mouse B16-F1 migrating cells assessed as fold change in Napa-RNA stability at 0.1 mM measured by ChIP-seq analysis relative to control cells
[17] = target: T1, RNA polymerase II (Mus musculus); test: Inhibition of RNA polymerase II in mouse B16-F1 migrating cells assessed as fold change in Hmgn5-RNA stability at 0.1 mM measured by ChIP-seq analysis relative to control cells
[18] = target: T1, RNA polymerase II (Mus musculus); test: Inhibition of RNA polymerase II in mouse B16-F1 migrating cells assessed as fold change in Ikzf5-RNA stability at 0.1 mM measured by ChIP-seq analysis relative to control cells
[19] = target: T1, RNA polymerase II (Mus musculus); test: Inhibition of RNA polymerase II in mouse B16-F1 migrating cells assessed as fold change in C1galt1-RNA stability at 0.1 mM measured by ChIP-seq analysis relative to control cells
[20] = target: T1, RNA polymerase II (Mus musculus); test: Inhibition of RNA polymerase II in mouse B16-F1 migrating cells assessed as fold change in Csrnp2-RNA stability at 0.1 mM measured by ChIP-seq analysis relative to control cells
[21] = target: T1, RNA polymerase II (Mus musculus); test: Inhibition of RNA polymerase II in mouse B16-F1 migrating cells assessed as fold change in Tuba1a-RNA stability at 0.1 mM measured by ChIP-seq analysis relative to control cells
[22] = target: T1, RNA polymerase II (Mus musculus); test: Inhibition of RNA polymerase II in mouse B16-F1 migrating cells assessed as fold change in Prr11-RNA stability at 0.1 mM measured by ChIP-seq analysis relative to control cells
[23] = target: T1, RNA polymerase II (Mus musculus); test: Inhibition of RNA polymerase II in mouse B16-F1 migrating cells assessed as fold change in Pkig-RNA stability at 0.1 mM measured by ChIP-seq analysis relative to control cells
[24] = target: T1, RNA polymerase II (Mus musculus); test: Inhibition of RNA polymerase II in mouse B16-F1 migrating cells assessed as fold change in Tgfbr1-RNA stability at 0.1 mM measured by ChIP-seq analysis relative to control cells
[25] = target: T1, RNA polymerase II (Mus musculus); test: Inhibition of RNA polymerase II in mouse B16-F1 migrating cells assessed as fold change in Atp11c-RNA stability at 0.1 mM measured by ChIP-seq analysis relative to control cells
[26] = target: T1, RNA polymerase II (Mus musculus); test: Inhibition of RNA polymerase II in mouse B16-F1 migrating cells assessed as fold change in Zfp148-RNA stability at 0.1 mM measured by ChIP-seq analysis relative to control cells
[27] = target: T1, RNA polymerase II (Mus musculus); test: Inhibition of RNA polymerase II in mouse B16-F1 migrating cells assessed as fold change in Lypla1-RNA stability at 0.1 mM measured by ChIP-seq analysis relative to control cells
[28] = target: T1, RNA polymerase II (Mus musculus); test: Inhibition of RNA polymerase II in mouse B16-F1 migrating cells assessed as fold change in Slc25a1-RNA stability at 0.1 mM measured by ChIP-seq analysis relative to control cells
[29] = target: T1, RNA polymerase II (Mus musculus); test: Inhibition of RNA polymerase II in mouse B16-F1 migrating cells assessed as fold change in Tmem56-RNA stability at 0.1 mM measured by ChIP-seq analysis relative to control cells
[30] = target: T1, RNA polymerase II (Mus musculus); test: Inhibition of RNA polymerase II in mouse B16-F1 migrating cells assessed as fold change in Thoc2-RNA stability at 0.1 mM measured by ChIP-seq analysis relative to control cells

The chains behind the UniProt entries cited, without tags or fusion partners.
UniProt Q61188, whole entry: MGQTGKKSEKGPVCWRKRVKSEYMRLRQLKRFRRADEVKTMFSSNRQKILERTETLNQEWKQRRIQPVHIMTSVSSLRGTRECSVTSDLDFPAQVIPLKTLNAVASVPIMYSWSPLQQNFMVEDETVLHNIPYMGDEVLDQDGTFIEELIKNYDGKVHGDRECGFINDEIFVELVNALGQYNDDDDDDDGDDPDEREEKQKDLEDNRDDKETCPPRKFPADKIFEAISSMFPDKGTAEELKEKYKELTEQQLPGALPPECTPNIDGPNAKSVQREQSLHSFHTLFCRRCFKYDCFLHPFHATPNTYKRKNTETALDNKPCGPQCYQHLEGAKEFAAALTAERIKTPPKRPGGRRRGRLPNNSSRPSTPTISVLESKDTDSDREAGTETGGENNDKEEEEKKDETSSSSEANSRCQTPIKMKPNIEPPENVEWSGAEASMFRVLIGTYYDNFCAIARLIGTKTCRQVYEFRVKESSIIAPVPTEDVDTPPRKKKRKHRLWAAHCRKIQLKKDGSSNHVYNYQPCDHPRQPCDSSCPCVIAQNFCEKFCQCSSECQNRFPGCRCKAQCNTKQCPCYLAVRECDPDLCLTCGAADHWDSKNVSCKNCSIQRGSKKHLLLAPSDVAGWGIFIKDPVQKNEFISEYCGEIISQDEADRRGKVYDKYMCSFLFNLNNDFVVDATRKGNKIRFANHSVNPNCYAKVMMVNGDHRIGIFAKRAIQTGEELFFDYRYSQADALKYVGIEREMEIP

CCCc1cc(C)[nH]c(=O)c1CNC(=O)c1cc(-c2ccnc(N3CCN(C)CC3)c2)cc2c1cnn2C(C)C
log2FC [1]: 0.38 | log2FC [2]: 0.68 | log2FC [3]: -0.39 | log2FC [4]: -0.82 | log2FC [5]: 0.24 | log2FC [6]: -0.56 | log2FC [7]: -0.39 | log2FC [8]: -0.62 | log2FC [9]: 0.47 | log2FC [10]: 0.53 | log2FC [11]: 1.51 | log2FC [12]: -0.6

OC[C@H]1O[C@@H](n2cnc3cc(Cl)c(Cl)cc32)[C@H](O)[C@@H]1O
log2FC [13]: -0.57 | log2FC [14]: 0.71 | log2FC [15]: -0.96 | log2FC [16]: 0.38 | log2FC [17]: -1.13 | log2FC [18]: -1.17 | log2FC [19]: -0.5 | log2FC [20]: -0.94 | log2FC [21]: 0.63 | log2FC [22]: -0.49 | log2FC [23]: 0.44 | log2FC [24]: -0.54 | log2FC [25]: -0.8 | log2FC [26]: -0.6 | log2FC [27]: -0.57 | log2FC [28]: 0.65 | log2FC [29]: -0.66 | log2FC [30]: -0.78

Reference: ChEMBL document CHEMBL5674883, “The Heterochromatin Landscape in Migrating Cells and the Importance of H3K27me3 for Associated Transcriptome Alterations” (Cells, 2018)
